In one experiment the target is GFP-hMETTL5 (human) (UniProt Q9NRN9). The experiment can be described thus: NanoSPD.
The target in experiment [1] is GFP-hCIB2 (calcium and integrin binding protein 2) (human) (UniProt O75838). The experiment is described as follows: NanoSPD.
The target is the same in experiment [2]. The experiment can be described thus: NanoSPD. The source holds these as a separate data set.
A further experiment has as its target tdTomato-CIB2 (UniProt O75838). The experiment can be described thus: co-IP.
For experiment [3], the target named is HA-GST-Rheb (WT, in HEK293) (UniProt Q15382). The experiment can be described thus: pull-down.
For experiment [4] the target is unchanged. The experiment is described as follows: pull-down. This is another data set of the same source.
In another experiment the target is HA-GST-Rheb D60V (UniProt Q15382). The experiment can be described thus: co-IP.
The target in another experiment is HA-GST-Rheb C181S (UniProt Q15382). The experiment is described as follows: co-IP.
Experiment [5] concerns the target HA-GST-Rheb (WT, in HEK293) (UniProt Q15382). The experiment can be described thus: co-IP.
The next experiment has as its target HA-GST-Rheb D60K (UniProt Q15382). The experiment can be described thus: co-IP.
A further experiment concerns the target HA-GST-Rheb D60I (UniProt Q15382). The experiment is described as follows: co-IP.
In another experiment the target is HA-GST-Rheb S20N (UniProt Q15382). The experiment is described as follows: co-IP.
A further experiment has as its target HA-GST-Rheb Δ181-184 (UniProt Q15382). The experiment can be described thus: co-IP.

By UniProt entry, the sequences of proteins in these tests, tags left out. Where a name states a change or a piece, a line headed by the entry shows the natural chain unless it says otherwise.
UniProt Q9NRN9, whole entry: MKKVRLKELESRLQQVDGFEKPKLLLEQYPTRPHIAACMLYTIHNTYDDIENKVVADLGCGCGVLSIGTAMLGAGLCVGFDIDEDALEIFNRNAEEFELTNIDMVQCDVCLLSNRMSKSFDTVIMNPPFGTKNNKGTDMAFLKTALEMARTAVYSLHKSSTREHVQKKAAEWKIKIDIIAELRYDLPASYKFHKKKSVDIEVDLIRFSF
UniProt O75838, whole entry: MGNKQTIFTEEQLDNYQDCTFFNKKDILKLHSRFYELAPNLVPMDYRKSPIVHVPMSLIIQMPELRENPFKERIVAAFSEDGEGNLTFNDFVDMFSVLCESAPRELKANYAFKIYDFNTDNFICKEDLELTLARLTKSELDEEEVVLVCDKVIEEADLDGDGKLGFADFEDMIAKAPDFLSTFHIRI
UniProt Q15382, whole entry: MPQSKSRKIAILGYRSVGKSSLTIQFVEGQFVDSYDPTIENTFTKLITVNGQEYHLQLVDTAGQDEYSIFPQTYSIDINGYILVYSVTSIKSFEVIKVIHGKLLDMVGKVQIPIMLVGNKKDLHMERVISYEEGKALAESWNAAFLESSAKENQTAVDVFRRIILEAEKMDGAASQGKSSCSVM
UniProt Q8N122, whole entry: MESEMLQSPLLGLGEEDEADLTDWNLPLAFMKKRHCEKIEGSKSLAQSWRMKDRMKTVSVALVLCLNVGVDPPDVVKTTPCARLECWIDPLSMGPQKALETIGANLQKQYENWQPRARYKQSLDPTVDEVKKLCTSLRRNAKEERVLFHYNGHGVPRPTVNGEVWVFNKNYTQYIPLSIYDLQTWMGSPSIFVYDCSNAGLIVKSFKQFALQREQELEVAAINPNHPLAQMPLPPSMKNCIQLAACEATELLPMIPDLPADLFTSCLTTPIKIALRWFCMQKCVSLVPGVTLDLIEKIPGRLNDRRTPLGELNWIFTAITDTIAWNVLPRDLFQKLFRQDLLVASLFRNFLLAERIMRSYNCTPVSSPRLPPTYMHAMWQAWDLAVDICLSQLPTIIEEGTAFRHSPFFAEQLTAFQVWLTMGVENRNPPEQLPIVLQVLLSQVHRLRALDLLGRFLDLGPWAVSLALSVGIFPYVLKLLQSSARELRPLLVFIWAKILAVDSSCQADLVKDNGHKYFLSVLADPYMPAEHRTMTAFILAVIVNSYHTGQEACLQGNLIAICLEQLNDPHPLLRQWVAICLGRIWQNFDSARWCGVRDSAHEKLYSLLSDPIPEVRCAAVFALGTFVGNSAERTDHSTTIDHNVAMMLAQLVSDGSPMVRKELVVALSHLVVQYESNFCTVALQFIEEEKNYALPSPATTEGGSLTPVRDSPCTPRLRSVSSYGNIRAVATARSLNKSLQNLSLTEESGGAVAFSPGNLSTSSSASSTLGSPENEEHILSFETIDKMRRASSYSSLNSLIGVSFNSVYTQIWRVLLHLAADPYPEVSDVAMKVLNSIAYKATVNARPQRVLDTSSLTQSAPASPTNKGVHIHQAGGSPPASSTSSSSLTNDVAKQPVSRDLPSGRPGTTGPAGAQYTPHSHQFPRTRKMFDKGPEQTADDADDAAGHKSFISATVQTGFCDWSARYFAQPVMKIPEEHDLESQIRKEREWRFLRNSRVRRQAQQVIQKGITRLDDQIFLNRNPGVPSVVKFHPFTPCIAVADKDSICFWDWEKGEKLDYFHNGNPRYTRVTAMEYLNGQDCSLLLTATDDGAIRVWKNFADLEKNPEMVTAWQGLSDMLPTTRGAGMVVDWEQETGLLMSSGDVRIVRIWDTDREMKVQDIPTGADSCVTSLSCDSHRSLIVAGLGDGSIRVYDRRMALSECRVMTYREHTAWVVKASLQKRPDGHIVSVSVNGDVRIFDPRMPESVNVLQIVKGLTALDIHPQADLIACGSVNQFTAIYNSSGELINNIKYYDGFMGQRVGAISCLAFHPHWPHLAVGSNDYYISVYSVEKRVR
UniProt Q96EZ8, whole entry: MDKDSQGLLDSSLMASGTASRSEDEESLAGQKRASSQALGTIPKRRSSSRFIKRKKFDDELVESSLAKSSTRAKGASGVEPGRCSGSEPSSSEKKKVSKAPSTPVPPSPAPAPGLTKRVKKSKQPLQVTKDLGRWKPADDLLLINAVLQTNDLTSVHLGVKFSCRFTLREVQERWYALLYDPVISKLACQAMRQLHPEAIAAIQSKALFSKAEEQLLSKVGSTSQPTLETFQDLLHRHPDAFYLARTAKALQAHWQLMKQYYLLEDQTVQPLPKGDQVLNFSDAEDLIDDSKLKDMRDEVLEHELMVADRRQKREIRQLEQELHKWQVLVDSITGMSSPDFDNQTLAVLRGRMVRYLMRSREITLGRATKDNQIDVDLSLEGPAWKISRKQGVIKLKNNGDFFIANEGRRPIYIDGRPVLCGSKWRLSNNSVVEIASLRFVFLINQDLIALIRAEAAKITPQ

The values below come from paper doi:10.1101/2020.09.18.302265.

Where two headings read alike, the source gives them in different places. No constants are given. Whether binding was seen depends on the method and setting. For some of these results: Binding seen in cells or lysates may run through a third protein. Some binding calls cover weakened binding; strength is not graded here.

In the case of “HA-GST-Rheb (in COS-7) (from UniProt Q15382 1-184)”, the binding entry with GFP-hMETTL5 (human) is on record as “no binding”; in experiment [1] it was “binds”.

As to “HA-mCherry-Raptor (from UniProt Q8N122 1-1335)”, the binding entry in the experiment with GFP-hMETTL5 (human) was “no binding”; in [1], “binds”; in experiment [2], “binds”.

In the case of “Raptor (exogenously expressed in HEK293) (from UniProt Q8N122 1-1335)”, the binding entry with tdTomato-CIB2 was “binds”.

Take “microspherule protein 1 (MCRS1) (from UniProt Q96EZ8 1-462)”: the binding entry in [1] was “no binding”.

Take “tdTomato-CIB2 (from UniProt O75838 1-187)”: the binding entry (in [3]; in experiment [4]; in the experiment with HA-GST-Rheb D60V; in the experiment with HA-GST-Rheb C181S; in [5]; in the experiment with HA-GST-Rheb D60K) was “binds” each time. Besides, the binding entry with HA-GST-Rheb D60I, with HA-GST-Rheb S20N and with HA-GST-Rheb Δ181-184 was “binds” throughout.
